Measurements reported in paper PMC8478939.
These are yes or no findings as the source states them, for the method shown. In cells and extracts the contact can be indirect. Some entries that bind do so weakly or less than the wild type.

By UniProt entry, the sequences of proteins in these tests, tags left out.
UniProt P30301: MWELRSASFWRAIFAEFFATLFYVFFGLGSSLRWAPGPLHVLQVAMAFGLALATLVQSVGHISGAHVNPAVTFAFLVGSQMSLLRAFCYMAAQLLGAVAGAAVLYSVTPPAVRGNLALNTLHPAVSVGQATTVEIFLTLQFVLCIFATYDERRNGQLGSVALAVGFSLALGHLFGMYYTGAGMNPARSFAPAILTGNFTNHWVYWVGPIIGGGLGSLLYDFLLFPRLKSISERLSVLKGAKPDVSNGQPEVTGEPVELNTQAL

Molecular target: human aquaporin 0 (AQP0) fused to a split-YFP fragment (human) (UniProt P30301)
Experiment: split reporter; BiFC (split YFP) in living S. cerevisiae, read by fluorescence microscopy (Zeiss Axio Observer Z1, 100x); cells at OD600 = 0.5

- binding: binds
Substance: human aquaporin 0 (AQP0) fused to a split-YFP fragment (from UniProt P30301 1-263)
